# Test results reported in paper PMC8034646.
# The chains behind the UniProt entries cited, without tags or fusion partners. Where a name states a change or a piece, a line headed by the entry shows the natural chain unless it says otherwise.
# UniProt Q9C7M2: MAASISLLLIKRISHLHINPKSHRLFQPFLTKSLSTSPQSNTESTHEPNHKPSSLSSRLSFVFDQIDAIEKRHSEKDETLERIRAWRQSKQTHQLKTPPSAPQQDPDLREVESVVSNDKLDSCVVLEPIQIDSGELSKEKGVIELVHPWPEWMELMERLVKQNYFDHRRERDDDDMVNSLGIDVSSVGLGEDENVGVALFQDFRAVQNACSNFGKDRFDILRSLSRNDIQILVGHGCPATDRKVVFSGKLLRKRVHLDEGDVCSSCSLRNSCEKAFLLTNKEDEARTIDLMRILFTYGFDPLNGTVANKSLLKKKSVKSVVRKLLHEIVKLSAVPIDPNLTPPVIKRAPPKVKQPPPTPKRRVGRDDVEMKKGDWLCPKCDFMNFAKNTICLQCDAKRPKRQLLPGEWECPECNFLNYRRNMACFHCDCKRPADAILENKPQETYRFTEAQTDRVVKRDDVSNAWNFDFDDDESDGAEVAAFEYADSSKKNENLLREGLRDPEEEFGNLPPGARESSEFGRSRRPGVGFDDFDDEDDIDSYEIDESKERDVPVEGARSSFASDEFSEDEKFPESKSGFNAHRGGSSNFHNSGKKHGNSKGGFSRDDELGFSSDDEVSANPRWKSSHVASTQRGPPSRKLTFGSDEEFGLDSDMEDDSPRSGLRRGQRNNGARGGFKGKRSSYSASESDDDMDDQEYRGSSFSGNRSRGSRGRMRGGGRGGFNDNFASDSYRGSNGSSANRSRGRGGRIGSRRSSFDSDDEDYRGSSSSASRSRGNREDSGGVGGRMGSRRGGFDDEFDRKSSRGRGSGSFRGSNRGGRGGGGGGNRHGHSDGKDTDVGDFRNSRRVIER
# No constants are given. Whether binding was seen depends on the method and setting. For some of these results: In cells and extracts the contact can be indirect. For some of these results: Binding can be weak; no strength is given.
# Tests used:
# OZ2 (Arabidopsis) [1] = biological target: OZ2 (Arabidopsis) (UniProt Q9C7M2); assay: split reporter; BiFC with nYFP and cYFP fusions (pEXSG-nYFP, pEXSG-cYFP) transiently co-expressed with P19 in agroinfiltrated N. benthamiana leaves; fluorescence microscopy 2-3 days after infiltration
# OZ2 (Arabidopsis) [2] = assay: two-hybrid; Gal4 AD (pGADT7GW) and BD (pGBKT7GW) fusions in mated PJ69-4a/PJ69-4α diploid yeast; growth on -Leu -Trp -His -Ade plates, dilution spots, imaged after three days at 30°C; empty vectors as negative controls
binding (OZ2 (Arabidopsis) [1]),binding (OZ2 (Arabidopsis) [2]),Binder
binds,,"MAT2 (protein, UniProt Q9FJR9 13-735) WLKPSSTYTNVYCFVTNPPLISNPNNGSAIFRYLSYFAPQQRRQQQQAPDPDDPANLLKEDGVSLCSQMWLENFKEPDKTATNLTSYLRRFELWVLAYQKVCCDELGAYVPRSSIQRSALENLLALRNSVLDDRFKWGSRLDFYIKSPRDKTDYESLSKRKIKAILTTTQPTPFQDRIVQEVLLMILEPIYESRFSQKSFAFRPGRTAHTVLRVIRRNFAGYLWYVKGDLSVVLDGMKVGFVISSLMRDVRDKKVIDLIKSALVTPVVTSKVEDGEKKKTKKRKYQKKRVLAEDEPKPDPYWLETFFGFAPEEAGKSPQWGHCGILSPLLVNVCLDELDRWMETKVKDFYRPSKSDVIWNNPEGEADQGNTSWPEFVPTSGPDKTRKMDYVRYGGHILIGVRGPRADAATLRKELIEFVDQKYMLRLDNENLPIEHITKGIMFLDHVLCRRVVYPTLRYTATGGKIISEKGVGTLLSVTASLKQCIKQFRKLLFIKGDRDPDPQPCFRMFHATQAHTNNQMNKFLTTIAEWYRFADNRKKIVNFCSYIIRGSLAKLYAAKYKLRSRAKVYKFANRNLSLPLLQKKGQSPEYQNLLRMGLAESVDGLVYTRMSLVPETDYSPFPGNWRPEHEKFLIEYLTLDEPKTLEEQKRFIREKGLVSPQDYTSMLVWNYKRNAIPMDQVSILKDQPFLLGSSSTYNRDNDDQKNKEEDEDSEDGLRIARM"
no binding,,"mTERF15 (protein, UniProt Q9C6A1 26-445) SSRILTPINQSHYRKRILLANLLQRYGFPPSSLQHFLSRNNHLLNSDLVETEISLGILLSLKIPQKSLVSLISDCPNVLRSEFLRKWRVPLSNCGKHGVVSSSAIKSVLEHSSRIGIGPDKFNECVRVLKSLGFCDSTVSRILSSFPGVLLVNEIEIRRKIEFLVGIGIARDNIERFFHVFPEVLGIGTETRLKPLLDEFMKMGFSKDDVKKEIAREPRVLGLELGELPRCLELINTLKCREVIRVSIISEGAFRAGFEVKLRVDCLCKYGLIRRDAFKVVWKEPRVILYEIEDIEKKIEFLTNRMGFHINCLADVPEYLGVNLQKQIVPRYNVIDYLKLKGGLGCDIGLKGLIKPSMKRFYNLYVMPYPECERIFGKRKENVRVNKRHPAGLWKLMKPPSNLTTKEDVQNMKSFIESLA"
,no binding,"mTERF15 (protein, UniProt Q9C6A1 1-445) MASKLKTFINLRDYPITLFNQIRSLSSRILTPINQSHYRKRILLANLLQRYGFPPSSLQHFLSRNNHLLNSDLVETEISLGILLSLKIPQKSLVSLISDCPNVLRSEFLRKWRVPLSNCGKHGVVSSSAIKSVLEHSSRIGIGPDKFNECVRVLKSLGFCDSTVSRILSSFPGVLLVNEIEIRRKIEFLVGIGIARDNIERFFHVFPEVLGIGTETRLKPLLDEFMKMGFSKDDVKKEIAREPRVLGLELGELPRCLELINTLKCREVIRVSIISEGAFRAGFEVKLRVDCLCKYGLIRRDAFKVVWKEPRVILYEIEDIEKKIEFLTNRMGFHINCLADVPEYLGVNLQKQIVPRYNVIDYLKLKGGLGCDIGLKGLIKPSMKRFYNLYVMPYPECERIFGKRKENVRVNKRHPAGLWKLMKPPSNLTTKEDVQNMKSFIESLA"
no binding,no binding,"RUG3 (protein, UniProt Q9FJG9 23-445) RSGGGANTKVPILYTSPDIDSDPVTLQLFSWGRGASGQLGGGIEEIRMYPSPVANLLFRSDQSFSLAQTPGRIDADSSSFRIGISCGLFHSGLTIDGDLWIWGKGDGGRLGFGQENSVFVPNLNPLFEEHSIRCIALGGLHSVALTHQGDVFTWGYGGFGALGHKVYTRELVPRRVDDSWDCKISAIATSGTHTAAITESGELYMWGREEGDGRLGLGPGRGPNEGGGLSVPSKVKALTVPVASVSCGGFFTMALTKEGQLWNWGANSNYELGRGDNLGGWEPMPVPSLEGVRITQIACGGYHSLALTEEGKVLSWGHGGHGQLGSSSLRNQKVPTEIEALADKKIVFIASGGSSSAAITDGGELWMWGNAKDFQLGVPGLPEIQTTPVEVNFLTEEDECQPHKVISISIGASHALCLVSRSP"
no binding,no binding,"WTF9 (protein, UniProt Q9ZUZ6 25-387) VDVYMKWKRDPYFDNIEHILRSSQLKSVVSLKNCIVQEPNRCIPISAISKKTRQFDVSTKIAHFLRKFPSIFEEFVGPEYNLPWFRLTPEATELDRQERVVYQTSADDLRDRLKKLILMSKDNVLPLSIVQGMKWYLGLPDDYLQFPDMNLDSSFRFVDMEDGVKGLAVDYNGGDKVLSVLQKNAMKKRRGEVSLEEIEFPLFPSKGCRLRVKIEDWLMEFQKLPYVSPYDDYSCLDPSSDIAEKRVVGFLHELLCLFVEHSAERKKLLCLKKHFGLPQKVHKAFERHPQIFYLSMKNKTCTAILREPYRDKASVETHPVLGVRKKYIQLMKNSELILKSRRNSFGFRDEGVVDKDLDLDFEG"
